Laboratory results as given in patent US6355617B1 (Syngenta Limited, priority 1996, dated 2002).

How the values were obtained:
[1] = general procedure: Fmoc solid-phase peptide synthesis; Fmoc Rink Amide MBHA Resin (Novabiochem); DIPCDI/HOBT; HBTU/HOBT/DIPEA; conditions: whole synthesis, RP-HPLC, scale of the general procedure 0.25 mmoles
[2] = general procedure: Fmoc solid-phase peptide synthesis; Fmoc Rink Amide MBHA Resin; DIPCDI/HOBT; HBTU/HOBT/DIPEA; conditions: whole synthesis, scale 0.25 mmol

| Substance | final HPLC purity [1] | isolated mass [2] |
| --- | --- | --- |
| Phv-Ala-Lys-IIb-Val-Ala-Ala-Ala-Pip-NH2 | 100% | 15 mg |
| Phv-Arg-Ala-IIb-Thr-Ala-Ala-Ala-Papa-NH2 | 100% | 45 mg |
